Patent US9695225B2 (Eli Lilly and Company, priority 2013, dated 2017)

Test: general procedure: Fmoc solid-phase peptide synthesis; Fmoc-Rink amide polystyrene resin; DIC/HOBt
Settings: whole synthesis, 220 nm, scale 0.125 mmol, TFA salt converted to acetate salt

HAQGTFLSDYSKYLD[Aib]KKAQEFVEWLLKTGPSSGAPPKSK-NH2
final purity (method not given): >95%

Non-standard residues stand in square brackets, D forms with d. No end group written: not given here. Aib = CC(C)(N)C(=O)O
